{
  "source": "patent US20060188921A1",
  "about": "“Methods for diagnosing and treating systemic lupus erythematosus disease and compositions thereof” (Wyeth, priority 2001, published 2006)",
  "test_system": "NZB/NZW F1 mice",
  "test": "Survival of treated NZB/NZW F1 mice",
  "type": "in vivo",
  "settings": "rapamycin 5 mg/kg subcutaneously, 3 doses a week for 8 weeks from 25 weeks old",
  "note": "At least one structure is not confirmed: it was looked up by name or label, or the drawing left a doubt.",
  "data": [
    {"smiles": "CO[C@H]1C[C@@H]2CC[C@@H](C)[C@@](O)(O2)C(=O)C(=O)N2CCCC[C@H]2C(=O)O[C@H]([C@H](C)C[C@@H]2CC[C@@H](O)[C@H](OC)C2)CC(=O)[C@H](C)/C=C(\\C)[C@@H](O)[C@@H](OC)C(=O)[C@H](C)C[C@H](C)/C=C/C=C/C=C/1C", "note": "[rapamycin]", "values": [
      {"measurement": "survival", "result": "prolonged survival"}
    ]}
  ]
}
